Source: PubChem BioAssay AID2685 (National Center for Advancing Translational Sciences (NCATS), 2010)
Screen size: about 320,000 compounds; about 2,100 (0.66%) were called active. This list was built around the results that the source calls inconclusive (neither active nor inactive); the mix of calls is not that of the screen. Calls follow the shape of the dose curve; as a rule, active = well fitted inhibition curve with a large enough effect in the signal ratio, with a control signal flat (not every such curve was filed as active); inconclusive = small, poorly fitted or top-dose-only effect, or effect the other way, or a change in a side signal; inactive = flat fitted curve, though single readings scatter; the % refers to the signal ratio. Potencies beside an inconclusive call are fits to weak or partial responses and may not hold up.
% is scaled to controls: 0 for no effect and ±100 for the full control effect; potency is read from the fitted curve at half-maximal effect.

Assay: qHTS Assay for Lipid Storage Modulators in Drosophila S3 Cells
Conditions: BODIPY lipid droplet fluorescence, 18-24 h, cells fed with added oleic acid; lipid storage change, negative = inhibition: at 46.1 µM (top of the series) unless noted
Method in brief: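 Drosophila S3 cells got compounds at several concentrations plus oleic acid (400 uM solution). Laser-scanning cytometry with 488 nm excitation read lipid droplets at 500-530 nm and cells at 575-640 nm. Percent activity was relative to 20 uM Triacsin C.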
With `O=C1C=C(O)c2c(O)cccc2C1=O` the lipid storage change, negative = inhibition was inconclusive: 11%. For `COCCOCCOCCC(=O)NC1CC2CCC1(C)C2(C)C` (stereo not given), the lipid storage change, negative = inhibition was inconclusive: -49.8%. For `CCCCC/C(=N\NC(=O)Nc1ccccc1)c1ccccc1`, the lipid storage change, negative = inhibition was inconclusive: 0.608%. In the case of `CC/C(C)=N\NC(=O)CNC(=O)c1ccc(Cl)cc1Cl`, the lipid storage change, negative = inhibition is reported as inconclusive: -4.56%. For `Cc1ccccc1-n1nc(C)c2cc(C(=O)N3CCN(S(=O)(=O)c4ccccc4)CC3)sc21`, the Potency was inconclusive: 4.11 µM [activator, full curve]. With `Cc1cc(=O)oc(C)c1C(=O)N[C@@H](Cc1ccccc1)C(=O)O` the Potency was inconclusive: 29.1 µM [activator, single point]. With `Cn1c(CSCc2ccc(Cl)cc2)n[nH]c1=S` the lipid storage change, negative = inhibition was inconclusive: 9.53%. For `Cc1c(NC(=O)c2ccc(NC(=O)C3CC3)cc2)cccc1C(=O)O`, the lipid storage change, negative = inhibition was inconclusive: 23.6%. In the case of `C=CCNC(=O)c1cc(-c2ccc3c(c2)OCO3)on1`, the lipid storage change, negative = inhibition is reported as inconclusive: 27.2%. In the case of `Cc1ccccc1/C=N/Nc1ccnc2cc(Cl)ccc12`, the Potency is reported as inconclusive: 29.1 µM [falling, single point]. In the case of `N#Cc1cccc(S(=O)(=O)NCC(=O)NCCCc2ccccc2)c1`, the Potency is reported as inconclusive: 29.1 µM [activator, partial curve, poor fit]. For `CN1CCc2nc(SC(C(=O)O)c3ccccc3)c(C#N)c(-c3cccs3)c2C1` (stereo not given), the lipid storage change, negative = inhibition was inconclusive: 2.8%. With `CCN(CC)S(=O)(=O)c1ccc(N2CCOCC2)c(NC(=O)c2cc(=O)[nH]c3ccccc23)c1` the lipid storage change, negative = inhibition was inconclusive: -32.4%. In the case of `Cc1ccccc1OCC(=O)Nc1ccc2c(c1)C(=O)N(CCC(=O)O)C2=O`, the lipid storage change, negative = inhibition is reported as inconclusive: 14.6%. For `O=C1Nc2ccccc2/C1=C/c1cnc(-c2ccccc2)[nH]1`, the Potency was inconclusive: 20.6 µM [falling, single point]. With `CC1CN(CCCCOc2ccc(C(C)C)cc2)CC(C)O1` (stereo not given) the lipid storage change, negative = inhibition was inconclusive: 157%. With `COc1ccc(C(=O)NNC(=O)C(=O)N2CCCCC2)cc1OC` the Potency was inconclusive: 25.9 µM [activator, single point]. In the case of `CCOc1ccc(Nc2nc(N3CCCCC3)nc(N3CCCCC3)n2)cc1`, the lipid storage change, negative = inhibition is reported as inconclusive: -141%. In the case of `COc1ccccc1CNC(=O)[C@H](C)NC(=O)C1CCN(C(=O)[C@@H](N)Cc2ccccc2)CC1`, the Potency is reported as inconclusive: 29.1 µM [activator, partial curve, poor fit]. In the case of `CCOC(=O)C1CCN(C(=O)c2ccccc2N(C)S(C)(=O)=O)CC1`, the lipid storage change, negative = inhibition is reported as inconclusive: -3.05%. In the case of `O=C1C=C(c2ccc(-c3ccccc3)cc2)C[C@@H](c2ccc(Cl)cc2)C1`, the Potency is reported as inconclusive: 0.146 µM [cytotoxic, full curve, poor fit]. For `CCO[C@H]1OC(C(=O)N2CCN(C)CC2)=C[C@@H](C2CC2)[C@@H]1CCCO`, the “lipid storage change, negative = inhibition” value was inactive: -7.66%. For `COC(=O)NCC1(C)CC(NC(=O)OC)CC(C)(C)C1` (stereo not given), the lipid storage change, negative = inhibition was inconclusive: -36%. For `CCN1CCc2c(sc(NC(=O)C3CCCCC3)c2C(=O)OC)C1`, the lipid storage change, negative = inhibition was inconclusive: -4.3%. With `CC(=O)c1ccc(NC(=S)NC(C)c2ccc(Cl)cc2Cl)cc1` (stereo not given) the lipid storage change, negative = inhibition was inconclusive: -1.62%. With `Cc1nc2ccccc2n1CC(O)Cn1c(C(F)(F)F)nc2ccccc21` (stereo not given) the lipid storage change, negative = inhibition was inconclusive: -19.8%. In the case of `Cc1ccc(C(=O)NC2CCCCCCC2)c(Cl)c1`, the lipid storage change, negative = inhibition is reported as inconclusive: 18.6%. In the case of `CC(=O)N(Cc1ccc(F)cc1)c1cccc(C)c1C`, the lipid storage change, negative = inhibition is reported as inconclusive: 5.67%. With `Cc1onc(-c2ccccc2Cl)c1C(=O)Nc1cccc2nsnc12` the Potency was inconclusive: 2.91 µM [activator, partial curve]. With `COc1ccc(-c2nc(C3CCCCC3)c3cc(OC)ccc3n2)cc1` the lipid storage change, negative = inhibition was inconclusive: -46.5%. In the case of `O=C(O)CC(C(=O)O)c1cn(Cc2ccccc2)c2ccccc12` (stereo not given), the lipid storage change, negative = inhibition is reported as inconclusive: -0.0584%. For `Cc1ccccc1NC(=O)c1cc(S(=O)(=O)N2CCCCC2)cs1`, the lipid storage change, negative = inhibition was inconclusive: 464%. In the case of `S=C(NCCCN1CCOCC1)N1CCN(c2ccccc2)CC1`, the Potency is reported as inconclusive: 29.1 µM [activator, single point]. For `CCN(c1ccccc1)S(=O)(=O)c1ccc(Oc2ccc(C(C)=O)cc2OC)nc1`, the Potency was inconclusive: 6.51 µM [activator, partial curve, poor fit]. With `O=c1[nH]ncc(N2CCN(Cc3ccccc3)CC2)c1Cl` the “lipid storage change, negative = inhibition” value was inactive: 13.6%. With `O=C(c1cccc(S(=O)(=O)Nc2ccc(F)cc2)c1)N1CCOCC1` the lipid storage change, negative = inhibition was inconclusive: 25.4%. With `C=CCn1c(SC(CCO)C(=O)NCc2ccco2)nc2sc3c(c2c1=O)CCC3` (stereo not given) the lipid storage change, negative = inhibition was inconclusive: 13.1%. In the case of `COc1ccc(NC(=O)CS(=O)c2ccc(F)cc2)cc1` (stereo not given), the lipid storage change, negative = inhibition is reported as inconclusive: 35.5%. In the case of `COc1cc(/C(C)=N/Nc2ccc(C(=O)O)cc2)cc(OC)c1OC`, the lipid storage change, negative = inhibition is reported as inconclusive: 22.6%. In the case of `CCCCn1c(=O)n(C)c(=O)c2c(C(F)(F)F)cc(-c3ccncc3)nc21`, the Potency is reported as inconclusive: 1.3 µM [activator, partial curve]. With `O=C(COC(=O)c1nc(Cl)ccc1Cl)NCc1ccc(Cl)cc1Cl` the lipid storage change, negative = inhibition was “inconclusive”. In the case of `COc1cc(/C=N/N2CCOCC2)ccc1OC(=O)c1ccco1`, the lipid storage change, negative = inhibition is reported as inconclusive: 30.6%. For `Cc1ccc(COC(=O)CCc2nc3ccccc3c(=O)[nH]2)cc1`, the lipid storage change, negative = inhibition was inconclusive: 256%. With `CCCCS(=O)(=O)Nc1ccc2ncn(C)c(=O)c2c1` the Potency was inconclusive: 16.4 µM [falling, partial curve]. For `COP(=O)(OC)C(Nc1cc(Cl)cc(Cl)c1)c1cccc(O)c1` (stereo not given), the “lipid storage change, negative = inhibition” value was inactive: -23%. In the case of `N#Cc1nc(-c2ccc(Cl)cc2)oc1NCc1ccco1`, the Potency is reported as inconclusive: 10.3 µM [activator, partial curve]. With `NNC(=O)CNC(=O)C12CC3CC(CC(C3)C1)C2` the Potency was inconclusive: 29.1 µM [activator, single point]. In the case of `Cc1ccc(C2(C)NC(=O)N(CC(=O)NNC(=O)c3ccoc3C)C2=O)cc1` (stereo not given), the lipid storage change, negative = inhibition is reported as inconclusive: -12.5%. With `C/C=C(\C)C(=O)NNC(=O)c1sc(-c2ccccc2)nc1C` the lipid storage change, negative = inhibition was inconclusive: 10.1%. With `CC(C)(C)C(=O)NC(=S)N1CCc2ccccc21` the Potency was inconclusive: 5.17 µM [falling, single point]. With `COCCN(C(=O)COC(=O)CSc1ccccc1)c1c(N)n(Cc2ccccc2)c(=O)[nH]c1=O` the lipid storage change, negative = inhibition was “inconclusive”. With `O=C(CCC(=O)N1CCSc2ccccc21)NCc1cccc(Br)c1` the lipid storage change, negative = inhibition was inconclusive: -31.8%. With `O=C(Nc1nccs1)C1CC=CCC1` (stereo not given) the lipid storage change, negative = inhibition was inconclusive: 50.1%. In the case of `CC(C)=CCc1c(O)cc2oc3c(CC=C(C)C)c(O)c(O)c(CC=C(C)C)c3c(=O)c2c1O`, the Potency is reported as inconclusive: 29.1 µM [cytotoxic, single point]. With `CNC(=S)N/N=C/c1c(C)cccc1Cl` the lipid storage change, negative = inhibition was inconclusive: 9.31%. In the case of `Cc1c(Cl)cccc1NC(=O)CSc1ncnc2c1cnn2CCO`, the Potency is reported as inconclusive: 0.58 µM [activator, single point]. For `CCOC(=O)NNC(=O)C12CC3CC(CC(C3)C1)C2`, the lipid storage change, negative = inhibition was inconclusive: -81.7%. With `COc1cccc(-n2cnc3sc(C)cc3c2=O)c1` the lipid storage change, negative = inhibition was inconclusive: 42.7%. For `CN(CC(=O)Nc1ccccc1Br)C(=O)c1ccccc1Cc1ccccc1`, the Potency was inconclusive: 7.31 µM [falling, partial curve, poor fit]. For `Fc1ccc(Cn2nnnc2CN2CCN(C3CCCC3)CC2)cc1`, the Potency was inconclusive: 25.9 µM [falling, partial curve, poor fit]. In the case of `S=c1[nH]nc(-c2ccc(Cl)cc2)n1-c1ccc2c(c1)OCCO2`, the Potency is reported as inconclusive: 16.4 µM [activator, single point]. In the case of `CC1CCCC(NC(=O)CSc2nncs2)C1C` (stereo not given), the lipid storage change, negative = inhibition is reported as inconclusive: -21.1%. With `CC1(C)CC(=O)C(C=NCCN2CCN(C(=O)CCl)CC2)=C(O)C1` the lipid storage change, negative = inhibition was inconclusive: -30.9%. In the case of `CNC(=O)C1CC(=O)N(c2ccc(OCC(=O)Nc3ccc(OC)cc3)cc2)C1` (stereo not given), the lipid storage change, negative = inhibition is reported as inconclusive: 9.53%. With `Cc1ccc(C(=O)NN2C(=O)CSC2=S)cc1` the lipid storage change, negative = inhibition was inconclusive: -6.9%. For `Cc1ccccc1OC(=O)CCC(=O)OCCCC(F)(F)C(F)(F)F`, the Potency was active: 29.1 µM. With `CCCC(=O)C1=C(c2ccccc2)C(C#N)(C#N)C(C#N)=C1N` the lipid storage change, negative = inhibition was inconclusive: 21%. For `COc1ccccc1CC(=O)N1CCN(c2ccccc2)CC1`, the lipid storage change, negative = inhibition was inconclusive: 11.4%. For `C=COCCn1c(=N)n(CCC)c2ccccc21`, the lipid storage change, negative = inhibition was inconclusive: 1.46%. With `CN(C)C(=O)CSc1nnc(CCNC(=O)OC(C)(C)C)o1` the lipid storage change, negative = inhibition was inconclusive: 27.9%. For `CC(C)CC(=O)Nc1nnc(SCC(=O)Nc2nccs2)s1`, the lipid storage change, negative = inhibition was inconclusive: 12%. For `NNC(=O)CCn1c2ccccc2c2ccccc21`, the lipid storage change, negative = inhibition was inconclusive: 5.44%. With `CC1CN(c2ccccc2)C(=O)CS1` (stereo not given) the Potency was inconclusive: 0.103 µM [falling, full curve, poor fit]. In the case of `CN(Cc1cccc(F)c1)C(=O)c1cc(S(=O)(=O)N2CCOCC2)ccc1N1CCCC1`, the “lipid storage change, negative = inhibition” value is reported as inactive: 2.59%. For `CSc1nnc(-c2nnc(SC)n2-c2ccccc2)n1-c1ccccc1`, the lipid storage change, negative = inhibition was inconclusive: 28.4%. In the case of `Cc1ccccc1NC(=O)NCCCCc1ccccc1`, the lipid storage change, negative = inhibition is reported as inconclusive: -10.7%. For `CCOC(=O)N1CCN(C(=O)Cn2c(=O)sc3ccccc32)CC1`, the lipid storage change, negative = inhibition was inconclusive: -12.8%. With `O=C(NCC1CCCO1)c1coc2nc3ccccc3nc12` (stereo not given) the Potency was inconclusive: 0.651 µM [activator, partial curve, poor fit]. In the case of `CC(=O)c1cccc(NC(=O)C2C3C=CC(C3)C2C(=O)O)c1` (stereo not given), the Potency is reported as inconclusive: 32.6 µM [activator, single point]. With `COCCNC(=O)c1ccc(C(=O)C(=O)c2ccccc2)cc1` the Potency was inconclusive: 29.1 µM [activator, single point].
